Source: US8187573B2, “In vivo detection of apoptosis” (priority 2005, dated 2012)

Test system: Spleen, Liver, Thymus, and CNS tissues
Assay: In vivo detection of morphine-mediated apoptosis: apoptosis positive cell counts in tissue sections after IV FAM-VAD-FMK
Settings: for Counts (apoptosis positive cell counts): 8.3 μg FAM-VAD-FMK IV, 45 minute incubation; for induction of apoptosis by morphine alone: morphine without LPS

## CN1CC[C@]23c4c5ccc(O)c4O[C@H]2[C@@H](O)C=C[C@H]3[C@H]1C5 [Morphine, morphine]
CNS
  Counts (apoptosis positive cell counts): 0
Liver
  Counts (apoptosis positive cell counts): 12 ± 3
Spleen and Thymus (p=0.012 and 0.0018 respectively), morphine with LPS
  enhancement of LPS induced apoptosis: statistically enhanced LPS induced apoptosis
Spleen
  Counts (apoptosis positive cell counts): 39 ± 12
Thymus
  Counts (apoptosis positive cell counts): 12 ± 6
Liver and central nervous system, morphine with LPS
  increase in apoptosis: not statistically significant
  induction of apoptosis by morphine alone: did not induce apoptosis
Listed as morphine
  induction of apoptosis by morphine alone: did not significantly induce apoptosis
